Test results from the supplement of paper PMC12823440, “Inhibitors supercharge kinase turnover through native proteolytic circuits” (Nature, 2025).
Structures can show the parent of a compound that is named as a salt. The list shows a part of the results. Hit calls seldom repeat between salt and free forms of one compound.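 Kinases were expressed as nanoluciferase fusions in K562 cells and luminescence was read every 4 h between 2 and 18 h as percent of control, DMSO set to 100% and a positive control to 0%. A time point counts as decreased when the signal drops significantly (2 sigma). The hit call is the authors' own, does not follow from the count of time points alone, and its rule is not shown.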

Chains of the proteins cited; added tags and fusions are not shown. Lines headed by an entry give the natural chain unless they say otherwise; changes in a name come on top.
UniProt P28482, whole entry: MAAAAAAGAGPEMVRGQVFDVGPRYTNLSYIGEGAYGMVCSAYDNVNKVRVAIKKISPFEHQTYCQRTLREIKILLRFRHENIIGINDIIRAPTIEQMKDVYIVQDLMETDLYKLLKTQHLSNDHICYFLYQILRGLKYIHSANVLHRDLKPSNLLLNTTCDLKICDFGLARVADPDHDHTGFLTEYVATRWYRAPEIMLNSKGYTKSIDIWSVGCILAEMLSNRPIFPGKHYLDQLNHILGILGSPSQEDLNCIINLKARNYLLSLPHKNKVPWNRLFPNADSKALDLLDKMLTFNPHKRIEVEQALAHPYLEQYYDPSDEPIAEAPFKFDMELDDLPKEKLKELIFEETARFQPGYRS
UniProt P31152, whole entry: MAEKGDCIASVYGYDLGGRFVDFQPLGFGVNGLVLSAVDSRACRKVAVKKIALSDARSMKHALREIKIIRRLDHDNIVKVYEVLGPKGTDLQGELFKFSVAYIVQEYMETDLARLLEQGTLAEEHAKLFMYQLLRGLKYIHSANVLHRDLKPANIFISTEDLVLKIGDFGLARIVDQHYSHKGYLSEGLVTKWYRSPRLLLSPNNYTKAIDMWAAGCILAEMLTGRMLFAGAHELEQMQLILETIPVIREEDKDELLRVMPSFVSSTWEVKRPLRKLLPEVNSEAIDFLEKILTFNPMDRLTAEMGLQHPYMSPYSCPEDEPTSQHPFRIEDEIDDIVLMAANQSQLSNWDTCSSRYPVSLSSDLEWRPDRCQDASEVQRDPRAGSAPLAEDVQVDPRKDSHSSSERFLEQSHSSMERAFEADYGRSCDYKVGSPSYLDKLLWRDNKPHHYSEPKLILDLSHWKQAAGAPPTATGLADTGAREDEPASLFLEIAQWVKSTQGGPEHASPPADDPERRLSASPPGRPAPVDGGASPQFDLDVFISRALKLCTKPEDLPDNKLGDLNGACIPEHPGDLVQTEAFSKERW
UniProt P49137, whole entry, looked up: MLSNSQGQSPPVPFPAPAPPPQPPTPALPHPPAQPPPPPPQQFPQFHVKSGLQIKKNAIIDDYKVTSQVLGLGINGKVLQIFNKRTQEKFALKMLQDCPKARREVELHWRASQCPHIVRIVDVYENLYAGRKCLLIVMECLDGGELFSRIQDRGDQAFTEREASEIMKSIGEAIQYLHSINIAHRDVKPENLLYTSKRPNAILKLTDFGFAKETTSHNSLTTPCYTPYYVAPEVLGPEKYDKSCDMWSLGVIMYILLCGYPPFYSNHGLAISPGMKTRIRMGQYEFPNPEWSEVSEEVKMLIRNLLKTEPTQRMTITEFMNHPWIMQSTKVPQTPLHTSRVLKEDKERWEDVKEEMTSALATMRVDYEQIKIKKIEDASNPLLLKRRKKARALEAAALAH
UniProt Q9BUB5: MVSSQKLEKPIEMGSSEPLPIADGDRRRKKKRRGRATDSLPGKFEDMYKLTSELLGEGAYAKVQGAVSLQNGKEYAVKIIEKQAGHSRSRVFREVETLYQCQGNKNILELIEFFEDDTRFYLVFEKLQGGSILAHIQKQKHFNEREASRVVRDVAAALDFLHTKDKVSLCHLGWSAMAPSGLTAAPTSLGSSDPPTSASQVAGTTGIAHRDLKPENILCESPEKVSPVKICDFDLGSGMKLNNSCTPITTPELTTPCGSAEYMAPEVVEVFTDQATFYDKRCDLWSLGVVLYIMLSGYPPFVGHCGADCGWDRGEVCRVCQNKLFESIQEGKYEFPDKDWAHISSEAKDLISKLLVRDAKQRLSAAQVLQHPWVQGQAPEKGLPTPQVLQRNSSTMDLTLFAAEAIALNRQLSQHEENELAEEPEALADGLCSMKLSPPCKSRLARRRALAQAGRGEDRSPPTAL
UniProt Q16620, whole entry, looked up: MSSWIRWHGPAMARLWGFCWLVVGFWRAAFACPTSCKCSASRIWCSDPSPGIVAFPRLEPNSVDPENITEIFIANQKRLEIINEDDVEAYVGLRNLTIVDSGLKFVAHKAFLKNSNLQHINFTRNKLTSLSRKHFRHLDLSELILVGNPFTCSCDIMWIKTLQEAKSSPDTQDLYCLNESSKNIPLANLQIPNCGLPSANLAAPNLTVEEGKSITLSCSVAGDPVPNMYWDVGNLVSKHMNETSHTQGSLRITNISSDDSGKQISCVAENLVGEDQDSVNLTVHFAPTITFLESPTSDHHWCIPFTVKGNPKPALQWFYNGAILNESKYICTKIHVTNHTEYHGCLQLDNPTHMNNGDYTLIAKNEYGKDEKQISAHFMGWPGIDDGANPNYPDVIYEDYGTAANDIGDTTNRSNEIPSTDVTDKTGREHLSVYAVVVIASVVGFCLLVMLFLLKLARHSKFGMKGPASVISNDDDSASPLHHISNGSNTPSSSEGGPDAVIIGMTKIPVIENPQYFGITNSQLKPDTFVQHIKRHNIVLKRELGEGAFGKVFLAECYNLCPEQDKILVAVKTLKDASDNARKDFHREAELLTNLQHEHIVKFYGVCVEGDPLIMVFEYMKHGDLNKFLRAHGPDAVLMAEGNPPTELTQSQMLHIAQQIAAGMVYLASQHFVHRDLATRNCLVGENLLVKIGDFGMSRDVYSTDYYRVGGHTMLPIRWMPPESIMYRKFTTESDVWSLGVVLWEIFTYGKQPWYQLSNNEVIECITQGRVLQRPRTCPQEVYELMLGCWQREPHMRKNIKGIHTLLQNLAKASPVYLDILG
UniProt Q16288, whole entry, looked up: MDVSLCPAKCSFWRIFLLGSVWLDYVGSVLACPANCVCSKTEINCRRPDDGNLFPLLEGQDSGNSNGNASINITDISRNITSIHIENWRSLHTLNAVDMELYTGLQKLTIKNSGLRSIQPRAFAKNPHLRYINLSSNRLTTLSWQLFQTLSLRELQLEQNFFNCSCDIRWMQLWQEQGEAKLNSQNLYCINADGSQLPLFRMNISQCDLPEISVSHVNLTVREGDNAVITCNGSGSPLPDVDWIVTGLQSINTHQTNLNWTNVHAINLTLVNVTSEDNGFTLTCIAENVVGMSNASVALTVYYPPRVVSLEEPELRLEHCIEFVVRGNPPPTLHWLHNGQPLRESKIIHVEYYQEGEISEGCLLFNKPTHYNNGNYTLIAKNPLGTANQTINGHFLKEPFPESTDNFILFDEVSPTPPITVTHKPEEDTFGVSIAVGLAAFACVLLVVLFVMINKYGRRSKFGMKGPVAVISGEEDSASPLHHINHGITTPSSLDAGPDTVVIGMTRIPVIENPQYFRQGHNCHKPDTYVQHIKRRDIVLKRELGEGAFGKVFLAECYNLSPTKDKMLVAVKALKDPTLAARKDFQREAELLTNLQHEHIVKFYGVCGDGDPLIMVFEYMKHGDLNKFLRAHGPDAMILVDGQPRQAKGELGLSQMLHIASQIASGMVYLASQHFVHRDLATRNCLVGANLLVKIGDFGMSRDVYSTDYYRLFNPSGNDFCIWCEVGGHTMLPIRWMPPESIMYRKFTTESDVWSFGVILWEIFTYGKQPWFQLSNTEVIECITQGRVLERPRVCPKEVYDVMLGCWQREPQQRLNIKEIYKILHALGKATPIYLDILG
UniProt O96013: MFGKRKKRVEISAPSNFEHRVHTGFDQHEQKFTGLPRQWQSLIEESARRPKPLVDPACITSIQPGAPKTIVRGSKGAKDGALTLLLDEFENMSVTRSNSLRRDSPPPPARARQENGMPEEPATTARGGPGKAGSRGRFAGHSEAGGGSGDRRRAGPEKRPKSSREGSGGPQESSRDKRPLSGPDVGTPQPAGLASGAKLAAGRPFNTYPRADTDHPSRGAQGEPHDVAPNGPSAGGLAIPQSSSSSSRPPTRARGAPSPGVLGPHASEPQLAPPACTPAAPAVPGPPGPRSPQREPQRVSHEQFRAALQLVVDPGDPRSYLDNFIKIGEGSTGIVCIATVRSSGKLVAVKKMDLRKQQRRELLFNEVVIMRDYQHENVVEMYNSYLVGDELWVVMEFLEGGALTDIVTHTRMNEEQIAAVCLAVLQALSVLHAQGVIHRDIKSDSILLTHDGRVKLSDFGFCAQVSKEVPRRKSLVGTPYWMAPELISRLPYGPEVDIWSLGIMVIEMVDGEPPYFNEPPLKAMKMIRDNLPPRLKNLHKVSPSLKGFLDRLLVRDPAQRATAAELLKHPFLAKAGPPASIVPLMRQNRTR
UniProt Q96KB5: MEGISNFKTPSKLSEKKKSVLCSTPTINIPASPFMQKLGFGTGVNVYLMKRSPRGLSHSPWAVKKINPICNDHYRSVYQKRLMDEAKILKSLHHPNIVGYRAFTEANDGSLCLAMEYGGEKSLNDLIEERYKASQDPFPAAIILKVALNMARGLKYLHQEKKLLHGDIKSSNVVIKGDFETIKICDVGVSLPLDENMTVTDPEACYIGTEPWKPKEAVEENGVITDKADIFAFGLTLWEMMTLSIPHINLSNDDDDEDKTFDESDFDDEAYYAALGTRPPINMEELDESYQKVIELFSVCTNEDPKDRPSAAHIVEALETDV
UniProt P09619, whole entry: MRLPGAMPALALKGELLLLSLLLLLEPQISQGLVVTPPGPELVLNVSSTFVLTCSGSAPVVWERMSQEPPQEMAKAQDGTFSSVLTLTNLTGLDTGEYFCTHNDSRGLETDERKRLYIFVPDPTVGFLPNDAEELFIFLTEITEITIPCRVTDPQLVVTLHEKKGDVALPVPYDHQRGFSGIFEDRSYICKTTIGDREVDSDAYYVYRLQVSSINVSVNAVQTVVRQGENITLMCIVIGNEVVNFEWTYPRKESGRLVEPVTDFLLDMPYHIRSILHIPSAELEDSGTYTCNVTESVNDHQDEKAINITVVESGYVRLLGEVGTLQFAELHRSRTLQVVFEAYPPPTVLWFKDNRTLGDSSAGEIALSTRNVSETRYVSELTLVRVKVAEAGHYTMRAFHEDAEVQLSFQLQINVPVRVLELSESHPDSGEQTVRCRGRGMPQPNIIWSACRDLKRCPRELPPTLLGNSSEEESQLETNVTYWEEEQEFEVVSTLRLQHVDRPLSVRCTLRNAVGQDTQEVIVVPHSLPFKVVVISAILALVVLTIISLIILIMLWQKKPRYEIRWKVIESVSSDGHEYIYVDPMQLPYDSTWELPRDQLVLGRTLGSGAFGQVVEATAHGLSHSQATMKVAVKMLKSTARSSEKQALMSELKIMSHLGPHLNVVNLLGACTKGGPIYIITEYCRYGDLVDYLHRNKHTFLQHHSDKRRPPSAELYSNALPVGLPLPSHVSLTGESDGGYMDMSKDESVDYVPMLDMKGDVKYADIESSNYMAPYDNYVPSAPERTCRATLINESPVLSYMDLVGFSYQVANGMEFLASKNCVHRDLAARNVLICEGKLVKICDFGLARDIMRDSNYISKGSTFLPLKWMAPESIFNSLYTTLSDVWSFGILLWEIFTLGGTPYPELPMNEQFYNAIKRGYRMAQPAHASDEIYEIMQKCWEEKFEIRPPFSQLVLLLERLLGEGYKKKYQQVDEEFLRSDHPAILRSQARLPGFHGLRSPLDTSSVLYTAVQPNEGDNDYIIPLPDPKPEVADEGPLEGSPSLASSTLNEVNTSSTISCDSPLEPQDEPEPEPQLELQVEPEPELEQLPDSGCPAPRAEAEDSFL
UniProt Q15118, whole entry, looked up: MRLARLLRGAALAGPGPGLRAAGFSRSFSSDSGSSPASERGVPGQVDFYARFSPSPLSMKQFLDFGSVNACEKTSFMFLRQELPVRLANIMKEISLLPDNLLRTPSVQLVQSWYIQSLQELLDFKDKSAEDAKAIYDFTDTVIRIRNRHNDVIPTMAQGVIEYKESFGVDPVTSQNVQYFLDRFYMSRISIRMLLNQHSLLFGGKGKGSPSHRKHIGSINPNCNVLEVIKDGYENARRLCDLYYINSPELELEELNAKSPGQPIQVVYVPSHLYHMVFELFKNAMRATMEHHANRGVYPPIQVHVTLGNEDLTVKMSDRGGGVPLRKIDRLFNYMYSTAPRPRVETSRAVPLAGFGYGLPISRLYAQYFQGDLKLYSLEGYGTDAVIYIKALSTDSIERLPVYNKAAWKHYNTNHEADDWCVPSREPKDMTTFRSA

Experiments:
Assay in all cases: kinase-Nluc reporter destabilization hit call (1 = scored as downregulated) (binary); higher = compound decreases kinase abundance
Settings in all cases: K562; 2-18 h
[1] = molecular target: MAPK1 (UniProt P28482)
[2] = molecular target: MAPK4 (UniProt P31152)
[3] = molecular target: MAPKAPK2 (UniProt P49137)
[4] = molecular target: MKNK1 (UniProt Q9BUB5)
[5] = molecular target: NTRK2 (UniProt Q16620)
[6] = molecular target: NTRK3 (UniProt Q16288)
[7] = molecular target: PAK4 (UniProt O96013)
[8] = molecular target: PBK (UniProt Q96KB5)
[9] = molecular target: PDGFRB (UniProt P09619)
[10] = molecular target: PDK1 (UniProt Q15118)

Measured: kinase-Nluc reporter destabilization hit call

O=Cc1cn(Cc2ccc(Cl)cc2)c2ccccc12 [Oncrasin-1] (10 µM)
inactive: [1] 0 | [2] 0 | [3] 0 | [4] 0 | [5] 0 | [6] 0 | [7] 0 | [8] 0 | [9] 0 | [10] 0

CCN1CCN(C(=O)Cc2ccc(Nc3ncc(F)c(Nc4ccc(C(=O)Nc5ccccc5Cl)cc4)n3)cc2)CC1 (2.5 µM)
inactive: [1] 0 | [2] 0 | [3] 0 | [4] 0 | [5] 0 | [6] 0 | [7] 0 | [8] 0 | [9] 0 | [10] 0

COc1ccc(N(C(=O)Oc2c(C)cccc2C)c2ccnc(Nc3ccc(N4CCN(C)CC4)cc3)n2)c(OC)c1 (2.5 µM)
inactive: [1] 0 | [2] 0 | [3] 0 | [4] 0 | [5] 0 | [6] 0 | [7] 0 | [8] 0 | [9] 0 | [10] 0

C[C@H]1CC[C@]2(NC1)O[C@H]1C[C@H]3[C@@H]4CC[C@H]5C[C@@H](O)CC[C@]5(C)[C@H]4CC[C@]3(C)[C@H]1[C@@H]2C [Tomatidine] (2 µM)
inactive: [1] 0 | [2] 0 | [4] 0 | [5] 0 | [6] 0 | [7] 0 | [8] 0 | [9] 0 | [10] 0

CN(C)C(=O)c1ccc(Cn2c(C(=O)O)cc3c(Br)cc(Sc4ccc(Cl)c(Cl)c4)cc32)cc1 [Rheb inhibitor NR1] (10 µM)
inactive: [1] 0 | [2] 0 | [3] 0 | [4] 0 | [6] 0 | [7] 0 | [8] 0 | [9] 0 | [10] 0

Cc1ccccc1-n1c(Cn2ncc3c(N)ncnc32)nc2cccc(C)c2c1=O (10 µM)
inactive: [1] 0 | [2] 0 | [3] 0 | [4] 0 | [5] 0 | [6] 0 | [7] 0 | [8] 0 | [9] 0 | [10] 0

O=C(N[C@@H](COc1ccc2[nH]c(=O)[nH]c2c1)c1ccccc1)c1cccn(Cc2ccc(F)c(F)c2)c1=O (2.5 µM)
inactive: [1] 0 | [2] 0 | [3] 0 | [4] 0 | [5] 0 | [6] 0 | [7] 0 | [8] 0 | [9] 0 | [10] 0

Cc1[nH]ncc1-c1cc2nc([C@H]3CC4CCN3CC4)[nH]c(=O)c2s1 [(R)-Simurosertib] (10 µM)
inactive: [1] 0 | [2] 0 | [3] 0 | [4] 0 | [5] 0 | [6] 0 | [7] 0 | [8] 0 | [9] 0 | [10] 0

COc1cc2c(cc1F)C(c1ccccc1Cl)=Nc1c(n[nH]c1C)N2 (0.5 µM)
inactive: [1] 0 | [2] 0 | [3] 0 | [4] 0 | [5] 0 | [6] 0 | [7] 0 | [8] 0 | [9] 0 | [10] 0

C[C@H]1CC[C@]2(NC1)O[C@H]1C[C@H]3[C@@H]4CC[C@H]5C[C@@H](O)CC[C@]5(C)[C@H]4CC[C@]3(C)[C@H]1[C@@H]2C [Tomatidine (hydrochloride)] (10 µM)
inactive: [1] 0 | [2] 0 | [4] 0 | [5] 0 | [6] 0 | [7] 0 | [8] 0 | [9] 0 | [10] 0

CC(C)(C)c1cc(C=C(C#N)C#N)cc(Br)c1O (2.5 µM)
inactive: [1] 0 | [2] 0 | [3] 0 | [4] 0 | [5] 0 | [6] 0 | [7] 0 | [8] 0 | [9] 0 | [10] 0

Fetched one by one from the entries so far (2):
CC(C)(C)c1cc(C=C(C#N)C#N)cc(Br)c1O (2.5 µM)
inactive: [1] 0 | [2] 0 | [3] 0 | [4] 0 | [5] 0 | [6] 0 | [7] 0 | [8] 0 | [9] 0 | [10] 0

C[C@H]1CC[C@]2(NC1)O[C@H]1C[C@H]3[C@@H]4CC[C@H]5C[C@@H](O)CC[C@]5(C)[C@H]4CC[C@]3(C)[C@H]1[C@@H]2C [Tomatidine (hydrochloride)] (10 µM)
inactive: [1] 0 | [2] 0 | [4] 0 | [5] 0 | [6] 0 | [7] 0 | [8] 0 | [9] 0 | [10] 0

Remaining list, next part

COc1ccc2c(c1)[nH]c1c(C)nccc12 [Harmine] (10 µM)
inactive: [1] 0 | [2] 0 | [3] 0 | [4] 0 | [5] 0 | [6] 0 | [7] 0 | [8] 0 | [9] 0 | [10] 0

N#CC(C#N)=NNc1cccc(Cl)c1 (2.5 µM)
inactive: [1] 0 | [2] 0 | [3] 0 | [4] 0 | [5] 0 | [6] 0 | [7] 0 | [8] 0 | [9] 0 | [10] 0

CCCCNc1nc(N)c2[nH]c(=O)n(Cc3ccc(C)nc3)c2n1 (10 µM)
inactive: [1] 0 | [2] 0 | [3] 0 | [4] 0 | [5] 0 | [6] 0 | [7] 0 | [8] 0 | [9] 0 | [10] 0

CC(=O)OC(C)(C)/C=C/C(=O)[C@](C)(O)[C@H]1[C@H](O)C[C@@]2(C)[C@@H]3CC=C4[C@@H](C=C(O)C(=O)C4(C)C)[C@]3(C)C(=O)C[C@]12C [Cucurbitacin E] (2.5 µM)
inactive: [1] 0 | [2] 0 | [3] 0 | [4] 0 | [5] 0 | [6] 0 | [7] 0 | [8] 0 | [9] 0 | [10] 0

O=C1C=CC[C@@H]2[C@H]3CCCN4CCC[C@@H](CN12)[C@@H]34 [Sophocarpine (monohydrate)] (2.5 µM)
inactive: [1] 0 | [2] 0 | [3] 0 | [4] 0 | [5] 0 | [6] 0 | [7] 0 | [8] 0 | [9] 0 | [10] 0

O=C(/C=C/c1ccccc1)OC[C@H]1O[C@@H](O[C@@H]2OC=C[C@H]3[C@H](O)[C@@H]4O[C@]4(CO)[C@@H]23)[C@H](O)[C@@H](O)[C@@H]1O [Picroside I] (10 µM)
inactive: [1] 0 | [2] 0 | [3] 0 | [4] 0 | [5] 0 | [6] 0 | [7] 0 | [8] 0 | [9] 0 | [10] 0

O=C(O)c1sc2cc(Cl)ccc2c1Cl (10 µM)
inactive: [1] 0 | [2] 0 | [3] 0 | [4] 0 | [5] 0 | [6] 0 | [7] 0 | [8] 0 | [9] 0 | [10] 0

CC1=C[C@]23C(=O)[C@@H](C=C(CO)[C@@H](O)[C@]2(O)[C@H]1O)[C@H]1[C@@H](C[C@H]3C)C1(C)C [Ingenol] (10 µM)
inactive: [1] 0 | [2] 0 | [3] 0 | [4] 0 | [5] 0 | [6] 0 | [7] 0 | [8] 0 | [9] 0 | [10] 0

COc1ccc2c(c1)/C(=C/c1cnc[nH]1)C(=O)N2 (2.5 µM)
inactive: [1] 0 | [2] 0 | [3] 0 | [4] 0 | [5] 0 | [6] 0 | [7] 0 | [8] 0 | [10] 0

N#CC(C#N)=Cc1ccc(O)c(O)c1 [Tyrphostin 23] (10 µM)
inactive: [1] 0 | [2] 0 | [3] 0 | [4] 0 | [5] 0 | [6] 0 | [7] 0 | [8] 0 | [9] 0 | [10] 0

C[C@H](Nc1ncnc2[nH]cnc12)c1nc2ccc(F)cc2c(=O)n1-c1ccccc1 [Acalisib] (10 µM)
inactive: [1] 0 | [2] 0 | [3] 0 | [4] 0 | [6] 0 | [7] 0 | [8] 0 | [9] 0 | [10] 0

CC(C)=CC[C@@H](OC(=O)CC(C)(C)O)C1=CC(=O)c2c(O)ccc(O)c2C1=O [β-Hydroxyisovalerylshikonin] (2.5 µM)
inactive: [1] 0 | [2] 0 | [3] 0 | [4] 0 | [5] 0 | [6] 0 | [7] 0 | [8] 0 | [9] 0 | [10] 0

O=c1ccc2cc(O[C@@H]3O[C@H](CO)[C@@H](O)[C@H](O)[C@H]3O)c(O)cc2o1 [Esculin] (10 µM)
inactive: [1] 0 | [2] 0 | [3] 0 | [4] 0 | [5] 0 | [6] 0 | [7] 0 | [8] 0 | [9] 0 | [10] 0

CC1C(=O)OC2C(O)C34C5OC(=O)C3(OC3OC(=O)C(O)C34C(C(C)(C)C)C5O)C12O (centres undefined) [Ginkgolide C] (10 µM)
inactive: [1] 0 | [2] 0 | [3] 0 | [4] 0 | [5] 0 | [6] 0 | [7] 0 | [8] 0 | [9] 0 | [10] 0

Cn1cc(C2=C(c3cn(C4CCN(Cc5ccccn5)CC4)c4ccccc34)C(=O)NC2=O)c2ccccc21 [Enzastaurin] (10 µM)
inactive: [1] 0 | [2] 0 | [3] 0 | [4] 0 | [5] 0 | [6] 0 | [7] 0 | [8] 0 | [9] 0 | [10] 0

Cc1ccccc1-n1c(Cn2cnc3c(N)ncnc32)nc2cccc(C)c2c1=O (10 µM)
inactive: [1] 0 | [2] 0 | [3] 0 | [4] 0 | [5] 0 | [6] 0 | [7] 0 | [8] 0 | [9] 0 | [10] 0

COc1ccc(/C=C/c2cc(OC)c(OC)c(OC)c2)cc1 (2.5 µM)
inactive: [1] 0 | [2] 0 | [3] 0 | [4] 0 | [6] 0 | [7] 0 | [8] 0 | [9] 0 | [10] 0

Cc1n[nH]cc1-c1cc2nc([C@@H]3CC4CCN3CC4)[nH]c(=O)c2s1 [Simurosertib] (2.5 µM)
inactive: [1] 0 | [2] 0 | [3] 0 | [4] 0 | [5] 0 | [6] 0 | [7] 0 | [8] 0 | [9] 0 | [10] 0
